Measurements taken from US7456192B2, “3β-amino azabicyclooctane heteroaromatic amid derivatives preparation method and therapeutic uses thereof” (Pierre Fabre Medicament, priority 2001, dated 2008).
Where a name gives a salt, the structure may show the parent alone.

Test system: catalepsy
Assay: Cataleptic activity in rats, compound alone without methylphenidate
Conditions: rat, from i.p. ED50 values

Structure (SMILES)	Ratio: Catalepsy/Normalization
CSc1c(C(=O)N[C@@H]2C[C@H]3CC[C@@H](C2)N3Cc2ccccc2)sc2ncccc12 [Example 2, 3-Methylsulfanylthieno[2,3-b]pyridine-2-carboxylic acid (8-benzyl-8-azabicyclo[3.2.1]oct-3β-yl)amide hydrochloride]	3.2
COc1c(C(=O)N[C@@H]2C[C@H]3CC[C@@H](C2)N3Cc2ccccc2)oc2cccnc12 [Example 4, 3-Methoxyfuro[3,2-b]pyridine-2-carboxylic acid (8-benzyl-8-azabicyclo[3.2.1]oct-3β-yl)amide dihydrochloride]	>40
COc1c(C(=O)N[C@@H]2C[C@H]3CC[C@@H](C2)N3Cc2ccc(Cl)cc2)sc2ncccc12 [Example 8, 3-Methoxythieno[2,3-b]pyridine-2-carboxylic acid [8-(4-chlorobenzyl)-8-azabicyclo[3.2.1]oct-3β-yl]amide hydrochloride]	>30
COc1c(C(=O)N[C@@H]2C[C@H]3CC[C@@H](C2)N3CC2CCCCC2)sc2ncccc12 [Example 10, 3-Methoxythieno[2,3-b]pyridine-2-carboxylic acid [8-cyclohexylmethyl-8-azabicyclo[3.2.1]oct-3β-yl]amide fumarate]	>8
COc1c(C(=O)N[C@@H]2C[C@H]3CC[C@@H](C2)N3Cc2ccc(F)cc2)sc2ncccc12 [Example 11, 3-Methoxythieno[2,3-b]pyridine-2-carboxylic acid [(8-(4-fluorobenzyl)-8-azabicyclo[3.2.1]oct-3β-yl)]amide hydrochloride]	>129
COc1c(C(=O)N[C@@H]2C[C@H]3CC[C@@H](C2)N3Cc2ccsc2)sc2ncccc12 [Example 12, 3-Methoxythieno[2,3-b]pyridine-2-carboxylic acid [8-thiophen-3-ylmethyl-8-azabicyclo[3.2.1]oct-3β-yl]amide hydrochloride]	>32
COc1cccc(C(=O)N[C@@H]2C[C@H]3CC[C@@H](C2)N3Cc2ccccc2)c1OC [Tropapride, reference compound]	0.9

Same assay, conditions: rat, from p.o. ED50 values

Structure (SMILES)	Ratio: Catalepsy/Normalization
COc1c(C(=O)N[C@@H]2C[C@H]3CC[C@@H](C2)N3Cc2ccccc2)sc2nccnc12 [Example 27, 3-Methoxythieno[2,3-b]pyrazine-2-carboxylic acid (8-benzyl-8-azabicyclo[3.2.1]oct-3β-yl)amide hydrochloride]	14
COc1c(C(=O)N[C@@H]2C[C@H]3CC[C@@H](C2)N3Cc2ccc(F)cc2)sc2nccnc12 [Example 29, 3-Methoxythieno[2,3-b]pyrazine-2-carboxylic acid [8-(4-fluorobenzyl)-8-azabicyclo[3.2.1]oct-3β-yl]amide hydrochloride]	15.6
CSc1c(C(=O)N[C@@H]2C[C@H]3CC[C@@H](C2)N3Cc2ccc(Cl)cc2)sc2nccnc12 [Example 31, 3-Methylsulfanylthieno[2,3-b]pyrazine-2-carboxylic acid [8-(4-chlorobenzyl)-8-azabicyclo[3.2.1]oct-3β-yl]amide hydrochloride]	4
CSc1c(C(=O)N[C@@H]2C[C@H]3CC[C@@H](C2)N3Cc2ccc(F)cc2)sc2nccnc12 [Example 32, 3-Methylsulfanylthieno[2,3-b]pyrazine-2-carboxylic acid [8-(4-fluorobenzyl)-8-azabicyclo[3.2.1]oct-3β-yl]amide hydrochloride]	4
